Results published in article PMC8310061.
No constants are given. Whether binding was seen depends on the method and setting. Some entries that bind do so weakly or less than the wild type.

Chains of the proteins cited; added tags and fusions are not shown.
UniProt P75024: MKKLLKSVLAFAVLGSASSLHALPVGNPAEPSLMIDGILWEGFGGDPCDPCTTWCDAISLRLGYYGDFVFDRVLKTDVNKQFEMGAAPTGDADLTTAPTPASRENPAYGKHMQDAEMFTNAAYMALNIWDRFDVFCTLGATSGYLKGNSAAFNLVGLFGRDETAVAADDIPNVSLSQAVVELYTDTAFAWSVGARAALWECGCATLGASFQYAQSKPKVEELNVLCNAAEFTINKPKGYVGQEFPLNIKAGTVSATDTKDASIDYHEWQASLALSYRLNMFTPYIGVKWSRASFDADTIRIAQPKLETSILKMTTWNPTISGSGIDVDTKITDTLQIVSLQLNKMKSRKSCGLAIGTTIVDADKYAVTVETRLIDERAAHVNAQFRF

Experiments:
[1] = target: Chlamydia muridarum major outer membrane protein (MOMP) (C. muridarum) (UniProt P75024); test: SDS-PAGE without heat and reducing agent, Western blot; purified MOMP-tNLP; blot probed with mAb40; compared with a sample boiled 5 min in 50 mM DTT; both purified
[2] = target: Chlamydia muridarum major outer membrane protein (MOMP) (C. muridarum) (UniProt P75024); test: SDS-PAGE without heat and reducing agent, Western blot; purified MOMP-telodisk (lipids and telodendrimer, no scaffold protein); Western blot in the absence of heat and reducing agent; both purified

Chlamydia muridarum major outer membrane protein (MOMP) (from UniProt P75024 1-387)
binding [1]: binds | binding [2]: binds
